# Assay results: the supplement of paper PMC12067093, “Discovery and optimisation of a covalent ligand for TRIM25 and its application to targeted protein ubiquitination” (Chemical Science, 2025)
# Sequences of proteins named here, by UniProt entry; tags and fusion partners are left off. A change or cut given only in a name is not applied to a line headed by its entry.
# UniProt Q86UX7, whole entry, looked up: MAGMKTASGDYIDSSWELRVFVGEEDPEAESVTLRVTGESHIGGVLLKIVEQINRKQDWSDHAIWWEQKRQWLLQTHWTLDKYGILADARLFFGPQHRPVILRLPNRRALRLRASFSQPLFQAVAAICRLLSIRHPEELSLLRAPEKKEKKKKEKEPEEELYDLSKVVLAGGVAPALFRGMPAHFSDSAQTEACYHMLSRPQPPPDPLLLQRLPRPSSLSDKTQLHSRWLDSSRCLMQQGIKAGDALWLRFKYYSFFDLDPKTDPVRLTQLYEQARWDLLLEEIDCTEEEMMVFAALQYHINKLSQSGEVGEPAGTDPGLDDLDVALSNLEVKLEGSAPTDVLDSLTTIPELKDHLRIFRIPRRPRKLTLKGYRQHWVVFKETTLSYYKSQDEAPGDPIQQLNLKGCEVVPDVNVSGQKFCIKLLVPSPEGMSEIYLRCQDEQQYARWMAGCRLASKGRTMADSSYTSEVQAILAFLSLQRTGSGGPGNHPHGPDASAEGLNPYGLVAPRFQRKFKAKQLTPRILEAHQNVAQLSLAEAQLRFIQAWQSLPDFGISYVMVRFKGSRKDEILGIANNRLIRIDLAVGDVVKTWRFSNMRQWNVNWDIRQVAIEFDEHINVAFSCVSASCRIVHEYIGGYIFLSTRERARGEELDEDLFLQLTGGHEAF
# UniProt Q9UK61: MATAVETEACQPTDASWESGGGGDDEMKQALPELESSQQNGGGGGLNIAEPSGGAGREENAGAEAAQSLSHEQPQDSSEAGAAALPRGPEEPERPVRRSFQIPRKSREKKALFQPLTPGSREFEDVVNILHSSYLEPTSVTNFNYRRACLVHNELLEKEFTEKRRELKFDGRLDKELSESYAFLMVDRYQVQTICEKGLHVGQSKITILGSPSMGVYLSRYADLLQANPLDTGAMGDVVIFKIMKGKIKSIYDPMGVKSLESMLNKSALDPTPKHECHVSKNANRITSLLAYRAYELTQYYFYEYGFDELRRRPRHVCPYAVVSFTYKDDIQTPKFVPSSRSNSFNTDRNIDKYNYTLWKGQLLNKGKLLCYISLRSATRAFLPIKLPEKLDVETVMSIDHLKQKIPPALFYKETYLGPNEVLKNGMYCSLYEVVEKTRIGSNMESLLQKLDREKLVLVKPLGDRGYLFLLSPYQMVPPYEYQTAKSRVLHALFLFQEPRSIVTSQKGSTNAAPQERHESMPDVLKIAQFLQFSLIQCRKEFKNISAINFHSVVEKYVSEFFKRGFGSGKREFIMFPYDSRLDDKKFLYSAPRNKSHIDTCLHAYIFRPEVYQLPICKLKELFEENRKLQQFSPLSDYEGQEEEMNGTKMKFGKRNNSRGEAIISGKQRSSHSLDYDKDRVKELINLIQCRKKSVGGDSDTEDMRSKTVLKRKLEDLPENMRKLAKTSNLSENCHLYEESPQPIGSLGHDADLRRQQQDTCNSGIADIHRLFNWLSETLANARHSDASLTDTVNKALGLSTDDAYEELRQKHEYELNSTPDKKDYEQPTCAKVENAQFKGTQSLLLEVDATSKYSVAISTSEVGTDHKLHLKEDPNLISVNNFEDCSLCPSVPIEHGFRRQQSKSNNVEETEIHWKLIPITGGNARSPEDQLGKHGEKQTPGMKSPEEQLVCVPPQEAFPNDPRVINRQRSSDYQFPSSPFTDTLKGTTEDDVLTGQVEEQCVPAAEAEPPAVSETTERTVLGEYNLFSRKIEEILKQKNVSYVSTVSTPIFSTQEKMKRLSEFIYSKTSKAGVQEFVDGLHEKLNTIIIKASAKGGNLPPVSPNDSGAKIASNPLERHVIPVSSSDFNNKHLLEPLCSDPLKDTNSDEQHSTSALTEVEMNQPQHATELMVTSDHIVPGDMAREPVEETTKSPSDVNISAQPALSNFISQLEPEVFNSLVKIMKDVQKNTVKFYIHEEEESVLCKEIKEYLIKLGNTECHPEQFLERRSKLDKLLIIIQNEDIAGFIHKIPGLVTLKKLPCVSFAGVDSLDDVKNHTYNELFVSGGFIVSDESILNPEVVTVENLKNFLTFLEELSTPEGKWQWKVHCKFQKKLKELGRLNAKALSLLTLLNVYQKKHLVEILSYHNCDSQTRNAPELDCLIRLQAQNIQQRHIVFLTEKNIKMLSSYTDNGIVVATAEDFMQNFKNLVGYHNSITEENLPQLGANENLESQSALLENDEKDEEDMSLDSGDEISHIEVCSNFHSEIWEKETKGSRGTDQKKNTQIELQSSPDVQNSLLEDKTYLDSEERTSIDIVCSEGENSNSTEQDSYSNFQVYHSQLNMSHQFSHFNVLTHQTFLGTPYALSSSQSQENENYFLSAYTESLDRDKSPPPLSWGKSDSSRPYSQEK
# UniProt Q8NFZ0: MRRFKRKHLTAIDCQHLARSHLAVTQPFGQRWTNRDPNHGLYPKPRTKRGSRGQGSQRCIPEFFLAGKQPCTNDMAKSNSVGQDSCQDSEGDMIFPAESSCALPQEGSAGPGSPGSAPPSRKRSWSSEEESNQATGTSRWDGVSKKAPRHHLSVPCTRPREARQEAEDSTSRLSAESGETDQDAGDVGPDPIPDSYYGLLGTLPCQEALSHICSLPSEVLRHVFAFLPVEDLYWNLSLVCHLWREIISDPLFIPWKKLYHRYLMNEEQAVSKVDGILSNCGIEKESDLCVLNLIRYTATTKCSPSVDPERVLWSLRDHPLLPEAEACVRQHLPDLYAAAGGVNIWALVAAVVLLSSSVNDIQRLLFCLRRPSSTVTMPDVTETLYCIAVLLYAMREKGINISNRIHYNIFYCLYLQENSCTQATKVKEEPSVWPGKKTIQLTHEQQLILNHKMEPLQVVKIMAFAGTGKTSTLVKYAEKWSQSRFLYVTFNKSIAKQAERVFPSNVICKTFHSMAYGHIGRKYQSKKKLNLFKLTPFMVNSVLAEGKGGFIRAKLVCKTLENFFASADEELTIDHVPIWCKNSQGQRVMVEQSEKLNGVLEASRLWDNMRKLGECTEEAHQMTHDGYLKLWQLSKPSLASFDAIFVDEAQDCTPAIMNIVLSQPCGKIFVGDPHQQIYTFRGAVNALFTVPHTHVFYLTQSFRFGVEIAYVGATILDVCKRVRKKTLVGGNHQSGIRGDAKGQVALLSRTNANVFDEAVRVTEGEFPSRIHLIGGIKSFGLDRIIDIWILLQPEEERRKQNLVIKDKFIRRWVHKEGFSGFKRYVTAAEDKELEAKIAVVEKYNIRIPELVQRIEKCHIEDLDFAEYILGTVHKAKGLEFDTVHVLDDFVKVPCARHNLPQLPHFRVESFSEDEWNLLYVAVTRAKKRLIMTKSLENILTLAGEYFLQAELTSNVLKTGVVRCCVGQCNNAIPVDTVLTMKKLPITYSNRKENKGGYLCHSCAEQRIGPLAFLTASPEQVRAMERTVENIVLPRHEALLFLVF
# UniProt P49327, whole entry, looked up: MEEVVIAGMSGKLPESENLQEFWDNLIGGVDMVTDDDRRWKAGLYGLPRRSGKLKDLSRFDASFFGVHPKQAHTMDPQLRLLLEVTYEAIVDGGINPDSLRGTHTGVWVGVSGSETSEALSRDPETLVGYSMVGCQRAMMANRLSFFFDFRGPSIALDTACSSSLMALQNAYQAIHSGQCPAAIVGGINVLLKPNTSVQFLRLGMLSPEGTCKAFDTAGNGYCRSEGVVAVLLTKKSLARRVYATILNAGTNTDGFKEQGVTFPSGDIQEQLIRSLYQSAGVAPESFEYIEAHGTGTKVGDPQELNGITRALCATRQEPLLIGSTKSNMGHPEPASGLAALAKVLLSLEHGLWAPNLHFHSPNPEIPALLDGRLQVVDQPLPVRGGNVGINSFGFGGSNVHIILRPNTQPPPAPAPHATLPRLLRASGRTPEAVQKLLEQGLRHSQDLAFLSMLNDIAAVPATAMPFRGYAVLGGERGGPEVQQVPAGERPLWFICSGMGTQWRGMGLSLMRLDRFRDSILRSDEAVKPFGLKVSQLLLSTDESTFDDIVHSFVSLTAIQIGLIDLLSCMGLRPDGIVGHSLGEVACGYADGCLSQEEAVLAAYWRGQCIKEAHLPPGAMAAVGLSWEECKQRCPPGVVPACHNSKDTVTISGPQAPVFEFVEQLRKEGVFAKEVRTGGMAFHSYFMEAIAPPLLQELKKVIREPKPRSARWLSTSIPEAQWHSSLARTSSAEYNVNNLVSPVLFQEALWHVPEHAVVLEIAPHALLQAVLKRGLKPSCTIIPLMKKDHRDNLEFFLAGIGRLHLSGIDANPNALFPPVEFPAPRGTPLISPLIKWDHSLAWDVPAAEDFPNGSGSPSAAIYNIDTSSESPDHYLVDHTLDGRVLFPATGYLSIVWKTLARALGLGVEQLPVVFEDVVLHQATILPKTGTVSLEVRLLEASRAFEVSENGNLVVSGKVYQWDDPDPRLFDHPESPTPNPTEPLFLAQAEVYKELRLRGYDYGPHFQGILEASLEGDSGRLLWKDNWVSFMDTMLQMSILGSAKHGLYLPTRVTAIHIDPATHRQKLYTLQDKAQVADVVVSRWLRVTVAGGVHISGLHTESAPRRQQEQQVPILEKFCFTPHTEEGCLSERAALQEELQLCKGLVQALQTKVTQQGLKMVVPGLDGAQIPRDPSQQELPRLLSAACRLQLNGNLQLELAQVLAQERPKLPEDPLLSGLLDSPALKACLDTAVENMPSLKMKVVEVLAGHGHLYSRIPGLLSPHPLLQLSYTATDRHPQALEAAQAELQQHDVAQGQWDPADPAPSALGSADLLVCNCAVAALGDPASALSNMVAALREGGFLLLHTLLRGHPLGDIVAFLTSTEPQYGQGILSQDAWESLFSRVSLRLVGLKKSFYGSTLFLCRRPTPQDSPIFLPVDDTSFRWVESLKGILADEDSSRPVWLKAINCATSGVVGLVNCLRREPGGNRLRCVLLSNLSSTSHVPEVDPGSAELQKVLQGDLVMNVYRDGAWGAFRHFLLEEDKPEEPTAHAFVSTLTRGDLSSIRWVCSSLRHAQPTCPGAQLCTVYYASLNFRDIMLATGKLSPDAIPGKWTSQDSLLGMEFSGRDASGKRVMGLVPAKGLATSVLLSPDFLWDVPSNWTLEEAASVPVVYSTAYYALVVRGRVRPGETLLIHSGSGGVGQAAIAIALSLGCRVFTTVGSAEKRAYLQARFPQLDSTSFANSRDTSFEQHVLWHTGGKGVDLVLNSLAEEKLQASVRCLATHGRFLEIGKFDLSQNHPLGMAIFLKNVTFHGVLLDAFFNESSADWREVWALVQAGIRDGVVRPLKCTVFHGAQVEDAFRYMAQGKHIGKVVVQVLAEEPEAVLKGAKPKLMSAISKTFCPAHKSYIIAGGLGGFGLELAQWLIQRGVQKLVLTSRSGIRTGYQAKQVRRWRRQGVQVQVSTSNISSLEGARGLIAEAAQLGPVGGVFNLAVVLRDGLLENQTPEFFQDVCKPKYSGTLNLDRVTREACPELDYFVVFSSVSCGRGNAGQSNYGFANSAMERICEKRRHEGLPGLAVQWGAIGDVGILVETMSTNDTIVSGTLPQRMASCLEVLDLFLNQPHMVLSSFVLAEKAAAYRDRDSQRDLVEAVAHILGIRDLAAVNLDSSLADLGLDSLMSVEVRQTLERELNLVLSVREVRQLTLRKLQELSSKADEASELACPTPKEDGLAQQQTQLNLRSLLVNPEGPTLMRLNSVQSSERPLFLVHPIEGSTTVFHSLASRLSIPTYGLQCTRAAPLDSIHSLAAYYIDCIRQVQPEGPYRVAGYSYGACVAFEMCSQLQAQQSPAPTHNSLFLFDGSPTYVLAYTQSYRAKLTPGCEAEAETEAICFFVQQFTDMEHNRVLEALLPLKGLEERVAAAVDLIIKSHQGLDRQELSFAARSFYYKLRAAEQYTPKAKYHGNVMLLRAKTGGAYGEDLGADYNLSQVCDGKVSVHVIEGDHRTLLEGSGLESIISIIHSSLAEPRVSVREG
# UniProt Q17RN3: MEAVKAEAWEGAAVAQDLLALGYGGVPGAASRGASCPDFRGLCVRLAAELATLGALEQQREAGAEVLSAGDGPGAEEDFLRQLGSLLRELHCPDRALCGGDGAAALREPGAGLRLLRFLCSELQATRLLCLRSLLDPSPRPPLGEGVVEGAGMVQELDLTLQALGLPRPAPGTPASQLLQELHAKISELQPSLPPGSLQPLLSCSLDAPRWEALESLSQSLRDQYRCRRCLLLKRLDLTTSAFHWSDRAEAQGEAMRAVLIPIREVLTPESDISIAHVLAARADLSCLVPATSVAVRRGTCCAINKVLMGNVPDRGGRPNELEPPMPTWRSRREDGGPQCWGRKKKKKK
# UniProt Q9NX38: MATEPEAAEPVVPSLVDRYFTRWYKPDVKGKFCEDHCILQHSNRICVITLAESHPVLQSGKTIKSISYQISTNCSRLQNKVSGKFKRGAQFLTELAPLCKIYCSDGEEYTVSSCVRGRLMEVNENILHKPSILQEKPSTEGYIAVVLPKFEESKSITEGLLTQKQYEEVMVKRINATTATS
# The other results are listed elsewhere or left out.
# Compound: CC1Cc2ccccc2N1C(=O)C1CCCN(C1)C(=O)CCl (mixture of isomers) [TRIM25 ligand 11 (diastereomer mixture)]
# Assay: probe-labelled cysteine peptide fold change vs DMSO (competition) (log2 fold change); higher = less target engagement (more negative = stronger competition)
# Conditions: THP-1, incubation time: 4 h
# 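Note: competitive chemoproteomic profiling in live THP-1 cells with an iodoacetamide desthiobiotin (IA-DTB) probe, comparing probe-labelled peptide intensities in compound-treated cells against DMSO-treated controls.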
Target,probe-labelled cysteine peptide fold change (10 µM),probe-labelled cysteine peptide fold change (50 µM)
FCHO1_O14526_371_APACSPEAAAAQLR (UniProt O14526),-0.000522,0.0121
FECH_P22830_395_ALADLVHSHIQSNELCSK (UniProt P22830),-0.03,-0.0606
FERMT3_Q86UX7_128_ASFSQPLFQAVAAICR (UniProt Q86UX7),-0.0435,0.138
FAM129A_Q9BZQ8_763_EPSQAAAIHPDNCEESEVSER (UniProt Q9BZQ8),0.00176,-0.417
FAM208A_Q9UK61_617_SHIDTCLHAYIFRPEVYQLPICK (UniProt Q9UK61),-0.0112,-0.118
FAM98A_Q8NCA5_126_MLCVNAPPKK (UniProt Q8NCA5),-0.0255,-0.0926
FBXO5_Q9UKT4_95_LSCIGSPIVSPR (UniProt Q9UKT4),-0.0925,-0.0984
FBXO7_Q9Y3I1_286_RLQLLPESFICK (UniProt Q9Y3I1),-0.0129,0.128
FER_P16591_785_MSAPQHCPEDISK (UniProt P16591),-0.153,-0.15
FES_P07332_626_LIGVCTQK (UniProt P07332),0.0381,0.19
FBXL19_Q6PCT2_637_ETLVHLNLAGCHR (UniProt Q6PCT2),0.0561,-0.0306
FBXL20_Q96IG2_351+364_HLGNGACAHDQLEVIELDNCPLITDASLEHLK (UniProt Q96IG2),0.109,0.00526
FAM98B_Q52LJ0_220_INDALSCEYECR (UniProt Q52LJ0),-0.00202,0.0911
FAM76B_Q5HYJ3_73_PCQYCNIIAAFIGTK (UniProt Q5HYJ3),-0.263,-0.0696
FAM47A_Q5JRC9_650_ECSSELK (UniProt Q5JRC9),0.0869,0.135
FBH1_Q8NFZ0_857_CHIEDLDFAEYILGTVHK (UniProt Q8NFZ0),0.0964,-0.126
FASN_P49327_135_DPETLVGYSMVGCQR (UniProt P49327),-0.0231,-0.0643
FDX2_Q6P4F2_154_LGCQIVLTPELEGAEFTLPK (UniProt Q6P4F2),-0.122,-0.364
FASN_P49327_1118+1127_FCFTPHTEEGCLSER (UniProt P49327),0.0556,-0.215

Target,probe-labelled cysteine peptide fold change (10 µM),probe-labelled cysteine peptide fold change (50 µM)
FASN_P49327_1471_CVLLSNLSSTSHVPEVDPGSAELQK (UniProt P49327),0.0358,0.00309
FAR2_Q96K12_158_LEAFIHISTAYSNCNLK (UniProt Q96K12),0.048,0.0444
FBXO4_Q9UKT5_330_HEWQDEFSHIMAMTDPAFGSSGRPLLVLSCISQGDVK (UniProt Q9UKT5),0.014,-0.235
FAM192A_Q9GZU8_44_KPEDPEECPEEVYDPR (UniProt Q9GZU8),-0.0902,-0.146
FASN_P49327_2202_ADEASELACPTPK (UniProt P49327),-0.0516,-0.302
FASN_P49327_1459_AINCATSGVVGLVNCLR (UniProt P49327),0.0038,0.0169
FAM208A_Q9UK61_149_ACLVHNELLEK (UniProt Q9UK61),-0.217,-0.415
FAM98C_Q17RN3_340_REDGGPQCWGR (UniProt Q17RN3),-0.121,-0.539
FAM206A_Q9NX38_46_ICVITLAESHPVLQSGK (UniProt Q9NX38),0.133,0.494
FAM136A_Q96C01_110_QQLDSCVTK (UniProt Q96C01),-0.171,0.0583
FAM206A_Q9NX38_74_SISYQISTNCSR (UniProt Q9NX38),0.025,-0.0191
FBXL20_Q96IG2_272_LQSLCASGCSNITDAILNALGQNCPR (UniProt Q96IG2),0.0683,-0.178
FANCD2_Q9BXW9_117_NCLLSCER (UniProt Q9BXW9),0.0471,0.0974
FBN2_P35556_682_CDCPPGLAVGMDGR (UniProt P35556),0.118,0.308
FAM185A_Q8N0U4_161_SSGSGCVK (UniProt Q8N0U4),0.105,0.0307
FANCI_Q9NVI1_1025_EDALFCK (UniProt Q9NVI1),0.124,-0.134
FANCF_Q9NPI8_89_GPVPGLANFQALGHCDVLLSLR (UniProt Q9NPI8),-0.121,0.0984
FANCA_O15360_69_SHQDLNALLLEVEGPLCK (UniProt O15360),-0.121,-0.255
FASN_P49327_1448_AINCATSGVVGLVNCLR (UniProt P49327),-0.0803,-0.0165
